Out of some 31,000 sequences screened, about 1,400 (4.5%) were called active.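 How the source made its calls: active means median seed-adjusted z-score above 1 or below -1; inactive means the rest.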 This is one part of the list.
Assay: Novel Modifiers of Survival Motor Neuron (SMN) Protein: Gene Identification via Genome-wide siRNA Screen;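 further: luminescence tracks full-length SMN protein made from the SMN2 reporter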
Settings: HEK293T SMN2-luciferase reporter, siRNA knockdown, 72 h; actives lie on both sides
In short: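 HEK293T cells stably carrying an SMN2 promoter/splicing cassette–luciferase reporter were reverse-transfected with 1 pmol siRNA per well (druggable-genome library, 3 siRNAs per gene) and grown 72 h at 37 °C. Luminescence, normalized to negative-control siRNA and log10-transformed, was scored as MAD.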

Sequence | median seed-adjusted z-score
AGACAACAUUGCAACAAGATT against TFPI | inactive: -0.0076
GUGAAACUCUGGUCACUCATT against CILP | inactive: 0.0436
CGGCUUGAAUUUGAUCUAUTT against AASDHPPT | inactive: 0.64
GGCUCAGCAUUAUGUCUGUTT against TIMP4 | inactive: -0.112
CUAAUGGGAUUGUAACUGUTT against TGFBI | inactive: 0
CCGCUUCACAGGUAGUUAATT against NUP93 | active: 1.01
GGCGUGCCUUUCAUCCUGATT against H6PD | inactive: 0.069
GUCUGCUACGCAAAACAUUTT against SPSB2 | inactive: -0.741
GCUGCGUGCUGAUCAUGUATT against CALY | inactive: 0.216
AGAUAAGGAUGAAUUGAUATT against KLRB1 | inactive: -0.44
GACGUUGUGCUGCUACCUATT against EDA | inactive: 0.316
GAGUUUGAACGGGAAACAATT against BTN2A1 | inactive: 0.302
GGAAAGCUGUGAAAGUUCUTT against LDLRAD3 | inactive: -0.133
CGGAAUAUAUUAUUCGAGUTT against PXK | inactive: -0.4
GGAGGCUAAUCCUACUUCATT against RSAD1 | inactive: -0.269
GGAAGACUAGUGAAACCCATT against MAFF | inactive: 0.42
CAAUCACCUGCGUACAGAATT against COL1A1 | inactive: 0
GCAGUGAGAGAUGCACUGATT against ATP5E | inactive: -0.724
GAAGAGAUCCAGUCGCAUATT against DNAH2 | inactive: -0.342
GGGAUUAUCUUGCUUCCAATT against LPCAT2 | inactive: 0
CCUUACCUGGAGUACCCAATT against PMPCA | inactive: -0.985
GAUUCAGUGUGGGAGAGUUTT against MCAT | inactive: 0
AGGUACGUGUUUGACAUUATT against GDF5 | inactive: -0.0507

Sequence | median seed-adjusted z-score
GCCCGAAGGAUGAUUCAAATT against FOXK2 | inactive: -0.348
GCUAAAGCCCAGUAUCUCATT against CROT | inactive: -0.612
GAGAAACGGUCAUCACUGATT against TBC1D25 | inactive: 0.0296
GCUUCUCUCGGAUUGCGUATT against TRPC3 | inactive: -0.0856
CUACAGUAACUAUUCCAAATT against FPR2 | inactive: -0.166
GCUUGUUACUUUGCAACAATT against GDA | inactive: -0.406
CGCGCAACAUCGUCAAGUATT against LPHN1 | active: -1.03
GAAGAUAUCAUUACACUAATT against PCNA | inactive: 0.0727
AGAAUUCCUAGAUAUCUGUTT against CDC14B | inactive: 0.325
CCACGUUUGUCACUCAUGUTT against STAB1 | inactive: 0.264
GAAUCGGCGAUGUACUAGATT against NT5C3 | inactive: -0.456
GCAUGAGCGAGAAUGGCUATT against AZU1 | inactive: 0.349
GUGACUUCCUGGAACGUAUTT against POLL | inactive: -0.334
GCCCAUCGUGUAUACUUCATT against AFMID | inactive: -0.515
UCCCAGUUCUGAUACAUAUTT against SAE1 | inactive: 0.831
GAGUUUCAAUUUCAACAUUTT against NEGR1 | inactive: 0.194
GAUUCGUUCAGAGUCUAAATT against BIRC3 | inactive: -0.644
GUCUCACUGUGGACGAAAATT against ZNF57 | inactive: 0
GAGCAUACAAGUGCAGUUATT against FBXO4 | inactive: -0.0767
CCAUCUACGGUGACCUGAATT against AARS | inactive: 0
GACUCUGAAUGCUUGCUGUTT against MMS19 | inactive: 0.0142
UGACCAAGAGUGCAGAUUUTT against RGS11 | inactive: 0
GCUUCUACCCGAUCAACCATT against MMP23B | inactive: 0.288

In another format: results already given
Sequence	median seed-adjusted z-score
GCCCGAAGGAUGAUUCAAATT against FOXK2	inactive: -0.348
GCUAAAGCCCAGUAUCUCATT against CROT	inactive: -0.612
GAGAAACGGUCAUCACUGATT against TBC1D25	inactive: 0.0296
GCUUCUCUCGGAUUGCGUATT against TRPC3	inactive: -0.0856
CUACAGUAACUAUUCCAAATT against FPR2	inactive: -0.166
GCUUGUUACUUUGCAACAATT against GDA	inactive: -0.406
CGCGCAACAUCGUCAAGUATT against LPHN1	active: -1.03
GAAGAUAUCAUUACACUAATT against PCNA	inactive: 0.0727
AGAAUUCCUAGAUAUCUGUTT against CDC14B	inactive: 0.325
CCACGUUUGUCACUCAUGUTT against STAB1	inactive: 0.264
GAAUCGGCGAUGUACUAGATT against NT5C3	inactive: -0.456
GCAUGAGCGAGAAUGGCUATT against AZU1	inactive: 0.349
GUGACUUCCUGGAACGUAUTT against POLL	inactive: -0.334
GCCCAUCGUGUAUACUUCATT against AFMID	inactive: -0.515
UCCCAGUUCUGAUACAUAUTT against SAE1	inactive: 0.831
GAGUUUCAAUUUCAACAUUTT against NEGR1	inactive: 0.194
GAUUCGUUCAGAGUCUAAATT against BIRC3	inactive: -0.644
GUCUCACUGUGGACGAAAATT against ZNF57	inactive: 0
GAGCAUACAAGUGCAGUUATT against FBXO4	inactive: -0.0767
CCAUCUACGGUGACCUGAATT against AARS	inactive: 0

Later entries.

Sequence | median seed-adjusted z-score
CUACUACCGGGAUAGAGAUTT against APOBEC3D | inactive: -0.0215
CACGUUCACUGUGAACGAATT against HECW2 | inactive: 0.38
AGGUGAAUAUUGACCACUUTT against RGS5 | inactive: 0
GGAUGAAGGUAGAAAUGGATT against HK2 | inactive: -0.0135
ACUUCCAGAUUAUAGACAATT against NDUFB3 | inactive: -0.00982
GCAAGACCGUGAGACAACUTT against SENP7 | inactive: 0.547
CCUCGGAAGUGGAAGAGAUTT against SMARCB1 | inactive: 0.05
CCUGUUUCCGUGAAGAAAATT against CXCR4 | inactive: -0.347
AGUUCUCCGCGUUCAUCAATT against CLIC3 | inactive: 0
CAUCUACUUUAGUUCAUAATT against PAPOLG | inactive: 0.0674
GCCCAGUCUUCAAAGGAUUTT against SLC23A1 | inactive: 0.904
GCUUUACAGUCGGAAAAUATT against RND3 | inactive: -0.132
CUACUGGGCUCGUCUCUUUTT against FOXL2 | inactive: -0.166
GGAGUGUGGAAGUCCAUAATT against CD38 | inactive: 0.192
CGCAAAAUCUUCUAACGCATT against POU2F1 | inactive: 0.317
GACUAGUUAUAUCCAACAATT against TRIM37 | inactive: -0.108
GAAUUGUCUUAAGUGUAGATT against C1GALT1C1 | inactive: 0
GGGAGCAAUUGGUAAGGCATT against GARS | inactive: 0.138
CGACAAGUUGAAGACCAUATT against CRMP1 | inactive: -0.354
CAAGGAGAUUGAGAGCUUUTT against GPX7 | inactive: -0.971
CACGAGUGAUUCAGAUAUATT against MORC1 | inactive: -0.719
ACACAGUUGCGUGCACUGATT against TNXB | inactive: -0.0996
CAACAGCCGUAGCAUUUUUTT against STX10 | inactive: 0.772

Source: PubChem BioAssay AID1347426 (Functional Genomics Laboratory (NCATS/FGL), 2020)
